# Test results taken from article PMC7969741.
# Chains of the proteins cited; added tags and fusions are not shown. Residues count along the entry.
# UniProt P18564, residues 22-788: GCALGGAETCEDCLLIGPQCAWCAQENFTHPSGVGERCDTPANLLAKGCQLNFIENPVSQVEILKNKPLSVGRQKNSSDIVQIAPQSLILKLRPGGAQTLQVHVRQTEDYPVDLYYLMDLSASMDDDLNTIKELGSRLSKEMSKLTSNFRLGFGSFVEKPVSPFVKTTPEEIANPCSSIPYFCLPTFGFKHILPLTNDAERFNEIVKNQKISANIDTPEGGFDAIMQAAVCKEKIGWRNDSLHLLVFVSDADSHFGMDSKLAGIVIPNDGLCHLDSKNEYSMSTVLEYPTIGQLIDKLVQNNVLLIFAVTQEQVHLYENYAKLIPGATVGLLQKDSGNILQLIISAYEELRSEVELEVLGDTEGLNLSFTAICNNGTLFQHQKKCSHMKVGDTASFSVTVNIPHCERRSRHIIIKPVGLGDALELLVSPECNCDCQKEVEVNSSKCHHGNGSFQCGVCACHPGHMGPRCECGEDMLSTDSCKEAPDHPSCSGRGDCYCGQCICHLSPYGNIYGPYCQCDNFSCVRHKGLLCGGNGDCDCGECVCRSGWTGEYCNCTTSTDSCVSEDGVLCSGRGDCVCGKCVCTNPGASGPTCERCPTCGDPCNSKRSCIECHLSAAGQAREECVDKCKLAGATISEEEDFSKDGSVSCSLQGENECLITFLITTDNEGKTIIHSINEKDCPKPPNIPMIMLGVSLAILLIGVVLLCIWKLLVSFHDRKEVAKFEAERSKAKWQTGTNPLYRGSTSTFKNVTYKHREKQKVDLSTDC
# UniProt Q9Y490: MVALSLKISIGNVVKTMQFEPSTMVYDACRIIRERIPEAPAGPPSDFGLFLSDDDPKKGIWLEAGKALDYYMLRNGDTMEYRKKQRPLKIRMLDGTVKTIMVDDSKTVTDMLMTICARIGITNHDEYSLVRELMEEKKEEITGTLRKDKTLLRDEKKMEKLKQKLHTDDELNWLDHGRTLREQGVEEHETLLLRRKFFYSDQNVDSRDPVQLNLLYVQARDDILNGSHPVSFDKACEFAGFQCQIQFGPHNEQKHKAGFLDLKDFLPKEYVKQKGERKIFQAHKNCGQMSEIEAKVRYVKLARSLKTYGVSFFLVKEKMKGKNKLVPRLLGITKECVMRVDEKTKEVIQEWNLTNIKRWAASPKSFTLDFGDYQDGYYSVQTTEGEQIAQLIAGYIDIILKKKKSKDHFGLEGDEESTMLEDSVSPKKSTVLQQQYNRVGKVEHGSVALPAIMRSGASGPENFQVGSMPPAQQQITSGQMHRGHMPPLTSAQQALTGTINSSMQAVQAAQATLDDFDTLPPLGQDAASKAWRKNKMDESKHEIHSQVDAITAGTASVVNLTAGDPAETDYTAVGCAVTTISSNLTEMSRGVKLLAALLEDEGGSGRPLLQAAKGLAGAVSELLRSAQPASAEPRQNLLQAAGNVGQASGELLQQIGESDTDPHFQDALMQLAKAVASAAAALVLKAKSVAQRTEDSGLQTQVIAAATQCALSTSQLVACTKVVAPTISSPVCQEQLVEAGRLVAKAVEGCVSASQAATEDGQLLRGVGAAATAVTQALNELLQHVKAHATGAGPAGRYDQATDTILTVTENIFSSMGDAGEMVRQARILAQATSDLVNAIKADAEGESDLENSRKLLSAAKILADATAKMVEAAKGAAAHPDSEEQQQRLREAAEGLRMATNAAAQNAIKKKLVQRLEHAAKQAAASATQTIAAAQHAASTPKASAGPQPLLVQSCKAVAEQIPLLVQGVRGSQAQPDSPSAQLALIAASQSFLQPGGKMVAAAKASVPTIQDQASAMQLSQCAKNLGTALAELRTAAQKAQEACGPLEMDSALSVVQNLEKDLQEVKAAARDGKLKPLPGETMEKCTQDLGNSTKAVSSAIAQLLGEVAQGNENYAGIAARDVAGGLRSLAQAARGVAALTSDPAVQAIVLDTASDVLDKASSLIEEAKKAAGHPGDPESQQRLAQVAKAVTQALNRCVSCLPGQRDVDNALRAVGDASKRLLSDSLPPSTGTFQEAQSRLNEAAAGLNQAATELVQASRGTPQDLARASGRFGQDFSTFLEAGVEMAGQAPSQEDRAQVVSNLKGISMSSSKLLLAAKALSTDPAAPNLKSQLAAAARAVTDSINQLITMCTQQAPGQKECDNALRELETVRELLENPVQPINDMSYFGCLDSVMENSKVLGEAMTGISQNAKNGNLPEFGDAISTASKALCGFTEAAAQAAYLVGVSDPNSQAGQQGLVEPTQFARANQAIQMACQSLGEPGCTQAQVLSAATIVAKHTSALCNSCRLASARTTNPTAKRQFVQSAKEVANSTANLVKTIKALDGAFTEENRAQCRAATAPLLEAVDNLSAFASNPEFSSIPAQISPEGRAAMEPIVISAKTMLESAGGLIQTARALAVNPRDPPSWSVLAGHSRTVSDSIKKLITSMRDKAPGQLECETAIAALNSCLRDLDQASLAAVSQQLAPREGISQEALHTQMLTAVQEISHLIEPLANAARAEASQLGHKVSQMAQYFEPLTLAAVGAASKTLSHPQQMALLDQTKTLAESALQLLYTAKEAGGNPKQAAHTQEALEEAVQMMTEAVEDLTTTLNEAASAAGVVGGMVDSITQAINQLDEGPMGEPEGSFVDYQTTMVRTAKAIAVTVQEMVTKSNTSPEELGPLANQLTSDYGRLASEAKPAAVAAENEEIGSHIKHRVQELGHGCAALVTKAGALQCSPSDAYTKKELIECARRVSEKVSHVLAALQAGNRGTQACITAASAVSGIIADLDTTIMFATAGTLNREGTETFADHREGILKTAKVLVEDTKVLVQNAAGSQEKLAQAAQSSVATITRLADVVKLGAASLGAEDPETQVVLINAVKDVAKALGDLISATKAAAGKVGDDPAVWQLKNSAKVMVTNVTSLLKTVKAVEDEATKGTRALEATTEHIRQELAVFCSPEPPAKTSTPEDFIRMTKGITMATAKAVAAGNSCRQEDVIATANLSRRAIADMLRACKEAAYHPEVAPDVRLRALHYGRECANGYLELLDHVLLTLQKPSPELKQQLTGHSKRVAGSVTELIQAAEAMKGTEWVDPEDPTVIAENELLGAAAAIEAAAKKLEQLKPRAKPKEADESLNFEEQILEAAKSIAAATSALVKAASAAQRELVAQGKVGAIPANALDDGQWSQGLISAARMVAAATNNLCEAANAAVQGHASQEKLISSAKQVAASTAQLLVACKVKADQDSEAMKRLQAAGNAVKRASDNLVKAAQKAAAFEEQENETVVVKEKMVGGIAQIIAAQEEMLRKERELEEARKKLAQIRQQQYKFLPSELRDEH
# Results are given in words; binding and its absence hold for the method and conditions named. In cells and extracts the contact can be indirect. Some binding calls cover weakened binding; strength is not graded here.
# Assays:
# [1] = target: β6 subunit of the integrin complex (human (endogenous in SV40 immortalized human chondrocytes)) (UniProt P18564); assay: co-IP; lysates of SV40 cells and their secreted ECM, cells cultured in the free well (no shear stress); IP with anti-ITGB6 overnight at 4 °C, Protein A magnetic beads, immunoblot for talin
# [2] = target: β6 subunit of the integrin complex (human (endogenous in SV40 immortalized human chondrocytes)) (UniProt P18564); assay: co-IP; lysates of SV40 cells and their secreted ECM after 48-h shear stress (6.58 dynes/cm^2); IP with anti-ITGB6 overnight at 4 °C, Protein A magnetic beads, immunoblot for talin
substance,measurement,setting,value
talin (from UniProt Q9Y490 1-2541),binding,[1],binds weakly
same,binding,[2],binds
